This passage reports binding results from paper doi:10.1101/2021.01.04.425243.

Results are given in words; binding and its absence hold for the method and conditions named. Binding seen in cells or lysates may run through a third protein. Some results given as binding are weak or reduced against the parent protein; the word gives no strength.

This experiment addresses FGFR2b (human (endogenous in T47D)) (UniProt P21802). Briefly: co-IP.

“EGFR T693A mutant (from UniProt P00533 25-1210) (receptor)”: the binding result is listed as “binds”.

With “EGFR wild type (from UniProt P00533 25-1210) (receptor)”, the binding entry was “binds”.
